Here are results for one substance from article PMC8767095.

Chains of the proteins cited; added tags and fusions are not shown.
UniProt P05627: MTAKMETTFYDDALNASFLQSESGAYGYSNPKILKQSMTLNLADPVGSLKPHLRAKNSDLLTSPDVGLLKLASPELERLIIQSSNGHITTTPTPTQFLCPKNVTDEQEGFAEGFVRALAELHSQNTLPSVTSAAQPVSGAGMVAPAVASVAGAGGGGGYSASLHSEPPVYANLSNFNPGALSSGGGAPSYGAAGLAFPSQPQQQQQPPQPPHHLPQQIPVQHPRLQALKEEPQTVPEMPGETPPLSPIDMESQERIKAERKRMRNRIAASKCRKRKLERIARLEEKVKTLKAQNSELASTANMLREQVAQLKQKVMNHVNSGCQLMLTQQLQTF
UniProt Q8VBV4: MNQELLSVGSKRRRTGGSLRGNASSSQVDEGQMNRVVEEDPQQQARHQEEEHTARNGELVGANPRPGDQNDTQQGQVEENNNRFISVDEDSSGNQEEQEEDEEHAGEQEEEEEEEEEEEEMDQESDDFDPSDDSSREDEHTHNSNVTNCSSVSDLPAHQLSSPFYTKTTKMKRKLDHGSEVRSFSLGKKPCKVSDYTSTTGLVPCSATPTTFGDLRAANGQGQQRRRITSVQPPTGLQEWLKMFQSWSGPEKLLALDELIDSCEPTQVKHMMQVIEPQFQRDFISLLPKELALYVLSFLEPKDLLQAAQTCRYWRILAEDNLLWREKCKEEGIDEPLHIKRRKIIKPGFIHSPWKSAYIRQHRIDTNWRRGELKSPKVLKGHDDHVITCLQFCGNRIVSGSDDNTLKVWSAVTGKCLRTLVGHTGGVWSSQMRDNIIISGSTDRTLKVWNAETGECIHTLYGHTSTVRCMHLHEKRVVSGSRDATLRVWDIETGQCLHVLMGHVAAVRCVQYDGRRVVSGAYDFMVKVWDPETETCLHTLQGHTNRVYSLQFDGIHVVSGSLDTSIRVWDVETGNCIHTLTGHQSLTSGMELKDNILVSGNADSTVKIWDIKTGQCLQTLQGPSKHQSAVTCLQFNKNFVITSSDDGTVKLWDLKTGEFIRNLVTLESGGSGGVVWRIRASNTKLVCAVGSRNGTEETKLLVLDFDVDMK

Results are given in words; binding and its absence hold for the method and conditions named. Binding seen in cells or lysates may run through a third protein. Some entries that bind do so weakly or less than the wild type.

The target in the experiment is c-Jun (mouse (endogenous in BMDMs)) (UniProt P05627). In words: co-IP; endogenous proteins in lysates of mouse BMDMs stimulated with IL-4 for indicated hours; immunoprecipitation and immunoblot by a standard protocol (ref. 35); which protein was precipitated is not told.

As to “F-box and WD repeat domain-containing 7 (Fbxw7) (from UniProt Q8VBV4 1-710)”, the binding result is on record as “binds”.
